# Reference: PubChem BioAssay AID720504 (National Center for Advancing Translational Sciences (NCATS), 2013)
# The chains behind the UniProt entries cited, without tags or fusion partners.
# UniProt P53350, whole entry, looked up: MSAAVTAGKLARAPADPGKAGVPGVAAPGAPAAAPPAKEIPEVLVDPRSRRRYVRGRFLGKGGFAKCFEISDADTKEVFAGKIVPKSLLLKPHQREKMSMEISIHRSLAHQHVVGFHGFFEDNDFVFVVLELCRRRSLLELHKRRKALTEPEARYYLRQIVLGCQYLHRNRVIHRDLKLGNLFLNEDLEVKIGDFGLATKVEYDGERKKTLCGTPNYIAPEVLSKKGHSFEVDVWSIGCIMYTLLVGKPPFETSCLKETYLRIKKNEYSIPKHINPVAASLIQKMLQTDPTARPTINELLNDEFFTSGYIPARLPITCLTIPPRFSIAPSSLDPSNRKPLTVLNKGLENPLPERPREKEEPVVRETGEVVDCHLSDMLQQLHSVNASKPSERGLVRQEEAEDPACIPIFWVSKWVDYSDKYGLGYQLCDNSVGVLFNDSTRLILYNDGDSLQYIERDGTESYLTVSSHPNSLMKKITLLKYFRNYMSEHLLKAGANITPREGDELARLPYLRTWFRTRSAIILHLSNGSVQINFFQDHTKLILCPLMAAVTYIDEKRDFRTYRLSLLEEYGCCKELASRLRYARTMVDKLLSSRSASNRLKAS
# Out of some 360,000 compounds screened, about 10,000 (2.8%) were called active. Inconclusive means that the source gave no clear call. Such entries were picked first, then a sample of the others. Calls follow the shape of the dose curve; as a rule, active = well fitted inhibition curve with a large enough effect; inconclusive = small, poorly fitted or top-dose-only effect; inactive = flat fitted curve, though single readings scatter. Where the call is inconclusive, the potency comes from a doubtful curve fit.
# Target: Serine/threonine-protein kinase PLK1 (Homo sapiens) (UniProt P53350)
# Assay: qHTS for Inhibitors of PLK1-PDB (polo-like kinase 1 - polo-box domain): Primary Screen; also: nearly all actives have a fitted effect of over 65% in size; as to max response, negative = inhibition: series mostly up to about 57 µM
# Settings: Plk1 PBD binding of FITC phosphopeptide, fluorescence polarization
# % is scaled to controls: 0 for no effect and ±100 for the full control effect; potency is read from the fitted curve at half-maximal effect.
SMILES,Potency,"max response, negative = inhibition"
O=C(Nc1ncc([N+](=O)[O-])s1)c1ccccc1Br,"inconclusive: 29.9 µM [inhibitor, partial curve]",
Cc1ccc2c(nc3s/c(=C/c4cccs4)c(=O)n32)c1C,"inconclusive: 29.9 µM [inhibitor, partial curve]",
CCCCc1c(C)nc2ccccc2c1SCCC#N,"inconclusive: 11.9 µM [inhibitor, partial curve]",
Cc1cnc(NC(=O)NCC2CCCC(CNC(=O)Nc3ncc(C)s3)C2)s1 (stereo unspecified),,inactive: -11.5%
CCc1cc(C(=O)NCC(c2ccco2)N2CCCCC2)sc1C (stereo unspecified),,inactive: -8.34%
CCCN=Cc1ccc(O)cc1,"inconclusive: 21.2 µM [inhibitor, single point]",
CC(C)N1CCN(Cc2ccccc2-c2ccco2)CC1CCO (stereo unspecified),,inactive: 2.92%
O=C(NS(=O)(=O)c1ccc2c(c1)OCCO2)c1ccccc1,"inconclusive: 29.9 µM [inhibitor, single point]",
CCn1cc(C(=O)NC(=S)Nc2cccc(O)c2)cn1,,inactive: -6.72%
COc1cc(C2Nc3ccccc3C(=O)N2c2ccccc2OC)ccc1O (stereo unspecified),,inactive: -7.14%
Nc1cc(N)nc(SCC(=O)N2CCN(S(=O)(=O)c3ccccc3)CC2)n1,"inconclusive: 23.8 µM [inhibitor, partial curve]",
COCCn1c(SCCCc2ccccc2)nc2c1c(=O)[nH]c(=O)n2C,,inconclusive: -33.5% [inhibitor]
O=C(O)Cc1ccccc1C(=O)O,,inactive: 2.79%
Oc1ccc(N=Nc2ccccc2)o1,"inconclusive: 23.8 µM [inhibitor, partial curve]",
COc1cc(OC)nc(C(NC(=O)C2CCN(Cc3ccc(Oc4ccccc4)cc3)CC2)c2ccc(F)cc2)n1 (stereo unspecified),,inactive: 1.05%
COc1cccc(/C=C/C(=O)NCc2ccc(S(N)(=O)=O)cc2)c1,,inactive: -5.72%
Cc1cc(CN2CCCC(C(=O)Nc3cccc(-n4cccn4)c3)C2)cc(C)c1O (stereo unspecified),"inconclusive: 37.7 µM [inhibitor, partial curve]",
NC(=O)NC(Cc1ccccc1)C(=O)Nc1ccc(S(N)(=O)=O)cc1 (stereo unspecified),,inactive: -0.345%
COc1ccccc1CNC(=O)c1sccc1-c1ccccc1,,inactive: 2.56%
Oc1c(Cl)cc(Cl)cc1/C=N/NC(=S)NC1CC2C=CC1C2 (stereo unspecified),"inconclusive: 37.7 µM [inhibitor, single point]",
N=c1oc2ccc3ccccc3c2cc1-c1nc(-c2ccccc2)cs1,"inconclusive: 23.8 µM [inhibitor, partial curve]",
Cc1ccc(OCC(=O)Nc2cc(C(=O)O)cc(C(=O)O)c2)cc1C,active: 2.99 µM,
CCn1c(=S)sc2c(=O)[nH]c(C)nc21,,inactive: -13.2%
CC(NS(=O)(=O)c1ccc([N+](=O)[O-])cc1)C(c1cccs1)N1CCOCC1 (stereo unspecified),"inconclusive: 26.7 µM [inhibitor, partial curve]",

# Some of the entries above, reformatted:
SMILES	Potency	max response, negative = inhibition
COCCn1c(SCCCc2ccccc2)nc2c1c(=O)[nH]c(=O)n2C		inconclusive: -33.5% [inhibitor]
O=C(O)Cc1ccccc1C(=O)O		inactive: 2.79%
Oc1ccc(N=Nc2ccccc2)o1	inconclusive: 23.8 µM [inhibitor, partial curve]	

# Additional results

SMILES,Potency,"max response, negative = inhibition"
O=C(Nc1ccc(F)cc1)c1nc(S(=O)(=O)Cc2ccccc2)ncc1Cl,active: 16.8 µM,
CNc1nnc(CSc2nc3ccccc3s2)s1,"inconclusive: 26.7 µM [inhibitor, single point]",
CCOC(=O)c1c(NC(=O)C2C3CCC(O3)C2C(=O)O)sc(C)c1-c1ccc(C)cc1 (stereo unspecified),"inconclusive: 26.7 µM [inhibitor, partial curve]",
COc1ccccc1-c1nc(SCC(=O)N2CCOCC2)n[nH]1,,inactive: -0.79%
CCOC(=O)c1c(-c2ccc(C)o2)csc1NC(=O)CN1CCN(CC)CC1,"inconclusive: 29.9 µM [inhibitor, single point]",
CC(C)CCN1C(=O)c2ccc(C(=O)Nc3cc(C(=O)O)cc(C(=O)O)c3)cc2C1=O,,inactive: -5.39%
Cc1ccc(-n2c(N)c(C(=O)NCc3ccco3)sc2=S)cc1,"inconclusive: 18.9 µM [inhibitor, partial curve]",
CCOc1ccc(N=C2NC(=O)S/C2=C\c2ccc(N(C)C)cc2)cc1,,inactive: -5.7%
CC1CCCCC1NC(=O)COC(=O)c1c2c(nc3ccccc13)/C(=C/c1ccco1)CC2 (stereo unspecified),active: 10.6 µM,
CCSc1nnc(NC(=O)[C@H](C)NC(=O)c2ccccc2Cl)s1,,inactive: -8.62%
O=S(=O)(Cc1ccccc1)N(O)c1ccccc1,"inconclusive: 16.8 µM [inhibitor, partial curve]",
CCOc1cc(/C=C2\C(=O)ON=C2c2ccccc2)cc(Br)c1O,"inconclusive: 1.5 µM [inhibitor, partial curve]",
N#CC1=C(Nc2ccccc2Cl)SC(c2ccncc2)NC1=O (stereo unspecified),active: 26.7 µM,
COC(=O)c1ccc(OC(=O)CS(=O)c2ccccc2[N+](=O)[O-])cc1 (stereo unspecified),"inconclusive: 16.8 µM [inhibitor, partial curve]",
O=C(c1cccs1)N1CCN=C1SCc1ccc(Cl)cc1,"inconclusive: 2.67 µM [inhibitor, partial curve, poor fit]",
C[C@]12c3[nH]c4cc(-c5ccco5)ccc4c3CCN1C(=O)[C@@H](CC(=O)NCc1cccc(C(F)(F)F)c1)C[C@@H]2C(=O)N1CCOCC1,"inconclusive: 23.8 µM [inhibitor, partial curve]",
Cc1ccc(S(=O)(=O)NC(C)(C)CSc2ccccn2)cc1,"inconclusive: 29.9 µM [inhibitor, partial curve]",
COc1ccc(CNC(=O)c2[nH]c(C(F)(F)F)nc2-c2ccccc2)cc1OC,,inactive: -13.3%
O=C(NC1CC2CCCC(C1)N2C(=O)Nc1ccc(Cl)c(C(F)(F)F)c1)C1CC1 (stereo unspecified),"inconclusive: 29.9 µM [inhibitor, partial curve]",
C/C(=N\Nc1nc2c(s1)CCCC2)c1ccccc1,"inconclusive: 4.23 µM [inhibitor, full curve]",
CCOC(=O)c1c(NC(=O)C(F)(OC)C(F)(F)F)sc(C(=O)N2CCCCC2)c1C (stereo unspecified),"inconclusive: 21.2 µM [inhibitor, partial curve, poor fit]",
Cc1cc(C)nc(NC(=O)c2ccc(Br)s2)n1,,inactive: 6.24%
COc1ccc(S(=O)(=O)N2CCc3ccccc32)cc1C(=O)OCc1c(C)noc1C,"inconclusive: 29.9 µM [inhibitor, partial curve]",
COC(=O)c1cc(-c2ccc(C)o2)nc2ccccc12,active: 15 µM,

SMILES,Potency,"max response, negative = inhibition"
COc1ccc([N+](=O)[O-])cc1NC(=S)NC(=O)C(C)(C)C,"inconclusive: 29.9 µM [inhibitor, single point]",
COc1cc(C2C3=C(CCCC3=O)Nc3ccc4ncccc4c32)ccc1O (stereo unspecified),"inconclusive: 37.7 µM [inhibitor, single point]",
CCN1C(=O)[C@H]2[C@@H](c3ccc(-c4cccc(Cl)c4)c(OC)c3)N[C@@](C)(C(=O)OC)[C@H]2C1=O,,inactive: -25.7%
Cc1ccc(NC(=O)C2(C)CCN2C(=O)C2(c3ccc(Cl)cc3)CC2)cc1 (stereo unspecified),,inactive: -3.62%
O=S(c1cc(Cl)cc(Cl)c1O)c1cc(Cl)cc(Cl)c1O,"inconclusive: 33.6 µM [inhibitor, single point]",
Cc1cc(O)c(N)c(C)c1Cl,"inconclusive: 37.7 µM [inhibitor, partial curve]",
Cc1cccn2cc(-c3c[nH]c4ccccc34)nc12,,inactive: 1.89%
CCCCN(C)Cc1c(C(=O)N2CCc3ccccc3C2)nc2ccc(Cl)cn12,,inactive: -11.6%
CCN1CC2([N+](=O)[O-])C=CC(=O)C([N+](=O)[O-])(C1)C2CC(=O)c1ccccc1 (stereo unspecified),"inconclusive: 26.7 µM [inhibitor, single point]",
O=C(Cc1ccc(S(=O)(=O)N2CCOCC2)s1)NCCOc1ccccc1,,inactive: 6.4%
O=C(CN1CCOCC1)N/N=C/c1cccc2ccccc12,,inactive: -13.2%
Cc1ccc(C(=O)NC(=S)NCc2ccco2)cc1,"inconclusive: 26.7 µM [inhibitor, partial curve]",
CC(=O)Nc1sc2c(c1C(c1ccccc1Cl)N1CCN(CCO)CC1)CCCC2 (stereo unspecified),"inconclusive: 21.2 µM [inhibitor, partial curve]",
COc1cccc(C(=O)Nc2nc(-c3ccncc3)cs2)c1,"inconclusive: 21.2 µM [inhibitor, partial curve]",
CCc1ccc(NC(=O)Nc2cc(C(=O)O)ccc2N2CC3CC(C2)c2cccc(=O)n2C3)cc1 (stereo unspecified),,inactive: -14.3%
COc1cccc(C(NC(C)=O)c2ccc3cccnc3c2O)c1 (stereo unspecified),"inconclusive: 29.9 µM [inhibitor, single point]",
Cc1ccc(S(=O)(=O)N2CCCCC2C(=O)Nc2nncs2)cc1 (stereo unspecified),"inconclusive: 26.7 µM [inhibitor, partial curve]",
CCN(CC)C(=O)CSc1nc2cccnc2n1-c1ccccc1OC,"inconclusive: 18.9 µM [inhibitor, partial curve]",
Cc1nnc(SCC2=C(C(=O)O)N3C(=O)C(NC(=O)Cn4ncc(Cl)c4C)C3SC2)s1 (stereo unspecified),"inconclusive: 23.8 µM [inhibitor, partial curve]",
Cc1ccc(S(=O)(=O)N/N=C/c2cccc3nccnc23)cc1,,inactive: -3.97%
O=[N+]([O-])c1ccc(S(=O)(=O)CC(CN2CCCCC2)N2CCCCC2)cc1 (stereo unspecified),"inconclusive: 21.2 µM [inhibitor, partial curve]",
Cc1c(Cl)cnn1CC(=O)NC1C(=O)N2C(C(=O)O)=C(CSc3nnnn3C)CSC12 (stereo unspecified),"inconclusive: 21.2 µM [inhibitor, partial curve]",
Cc1ccc(S(=O)(=O)N2CC=C(c3c(C)n(C)c4ccccc34)CC2)cc1,"inconclusive: 29.9 µM [inhibitor, partial curve]",
